Reference: US20150266922A1
These are yes or no findings as the source states them, for the method shown. In cells and extracts the contact can be indirect. Some results given as binding are weak or reduced against the parent protein; the word gives no strength. Sequences can lack the tags named with a protein.

Target: SUMO1E67A (UniProt P63165)
Assay: pull-down of recombinant protein on bead-immobilized SUMO1E67A

B1: GST-PIAS3 (protein, UniProt Q9Y6X2 1-628, looked up, not shown: a dimerising Fc or GST)
chain: MAELGELKHMVMSFRVSELQVLLGFAGRNKSGRKHELLAKALHLLKSSCAPSVQMKIKELYRRRFPRKTLGPSDLSLLSLPPGTSPVGSPGPLAPIPPTLLAPGTLLGPKREVDMHPPLPQPVHPDVTMKPLPFYEVYGELIRPTTLASTSSQRFEEAHFTFALTPQQVQQILTSREVLPGAKCDYTIQVQLRFCLCETSCPQEDYFPPNLFVKVNGKLCPLPGYLPPTKNGAEPKRPSRPINITPLARLSATVPNTIVVNWSSEFGRNYSLSVYLVRQLTAGTLLQKLRAKGIRNPDHSRALIKEKLTADPDSEVATTSLRVSLMCPLGKMRLTVPCRALTCAHLQSFDAALYLQMNEKKPTWTCPVCDKKAPYESLIIDGLFMEILSSCSDCDEIQFMEDGSWCPMKPKKEASEVCPPPGYGLDGLQYSPVQGGDPSENKKKVEVIDLTIESSSDEEDLPPTKKHCSVTSAAIPALPGSKGVLTSGHQPSSVLRSPAMGTLGGDFLSSLPLHEYPPAFPLGADIQGLDLFSFLQTESQHYGPSVITSLDEQDALGHFFQYRGTPSHFLGPLAPTLGSSHCSATPAPPPGRVSSIVAPGGALREGHGGPLPSGPSLTGCRSDIISLD
In the case of B1, the binding is reported as “binds”.
